The test system of the assay is HEK293A TEAD-LUC reporter. Put plainly: TEAD-luciferase reporter activity (YAP activation), robust Z score vs plate; higher = stronger YAP/TEAD activation. The conditions noted are these: 24 h.

Counter-ions that a name gives are not always drawn. The list shows a part of the results. Repeats in this data set agree poorly, so a single value says little.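 In a drug-repurposing library screen, luminescence reads luciferase driven by eight TEAD-binding elements, stably integrated into human kidney-derived cells. Compounds scoring over five robust Z scores above the plate mean are called hits.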

For `NS(=O)(=O)C#Cc1ccccc1` [Pifithrin-mu], the TEAD-luciferase reporter activity by setting is: (compound concentration: 200 nM) inactive: -2.4; (compound concentration: 2 uM) inactive: 0.219; (compound concentration: 10 uM) inactive: -0.0814.
The matching figures for `COCCOc1cc(Cn2c(C(=O)O)c(-c3ccc(C(C)(C)C)cc3)c3ccccc32)cc(OCCOC)c1`: inactive: -1.46, inactive: 1.04 and inactive: 1.72.
The matching figures for `CC(C)(C)c1nnc(-c2nn(-c3ccccc3Cl)c(-c3ccc(Br)cc3)c2Cn2cncn2)s1`: inactive: 0.674, inactive: 1.9 and inactive: 1.61.
Consider `COC(CNCC(C)C)COc1c(C)csc1C(=O)CCc1ccccc1` (centres undefined), for which the TEAD-luciferase reporter activity by setting is: (compound concentration: 200 nM) inactive: -0.344; (compound concentration: 2 uM) inactive: 1.98; (compound concentration: 10 uM) inactive: -0.0895.
Regarding `CC(=O)NCCC(=O)N1Cc2ccccc2CC2(CCCN2CC2CCCCC2)C1` (centres undefined), the TEAD-luciferase reporter activity is, setting by setting: (compound concentration: 200 nM) inactive: -0.936; (compound concentration: 10 uM) inactive: 2.93.
As to `CCCCCCCCCCCCCC(=O)[O][Pt-2]1([O]C(=O)CCCCCCCCCCCCC)[NH2+][C@@H]2CCCC[C@H]2[NH2+]1` [Miriplatin hydrate], the TEAD-luciferase reporter activity reads like this: (compound concentration: 200 nM) inactive: -2.37; (compound concentration: 2 uM) inactive: 3.41; (compound concentration: 10 uM) inactive: 2.05.
In the case of `CCn1cc(C(=O)O)c(=O)c2cc(F)c(N3CCNC(C)C3)c(F)c21` (centres undefined) [lomefloxacin], the TEAD-luciferase reporter activity was inactive: -0.731 (compound concentration: 200 nM), inactive: 0.201 (compound concentration: 2 uM) and inactive: 2.23 (compound concentration: 10 uM).
The matching figures for `N#Cc1ccc2c(c1)[C@H]1CN(CCCCNC(=O)c3ccc(-c4ccccc4)cc3)C[C@@H]1CO2`: inactive: -0.962, inactive: 0.698 and inactive: -1.16.
For `CCOP(=O)(COc1cc(C)c(Cc2ccc(O)c(C(C)C)c2)c(C)c1)OCC`, in that order: inactive: 0.985, inactive: -0.373 and inactive: -0.88.
For `CC1(C)CC(=O)N(CCCCN2CCN(c3ncccn3)CC2)C(=O)C1` [Gepirone hydrochloride], in that order: inactive: -2.45, inactive: -0.23 and inactive: 1.57.
With `CC(C)CCN(C[C@@H](O)[C@H](Cc1ccccc1)NC(=O)C(C)C(C)(C)C(N)=O)C(=O)NC(C)(C)C` (some centres undefined), the TEAD-luciferase reporter activity by setting is: (compound concentration: 200 nM) inactive: -1.03; (compound concentration: 2 uM) inactive: 0.57; (compound concentration: 10 uM) inactive: 0.114.
Consider `O=C(O)CN1C(=O)[C@@H](NC(CCCCC2CCNCC2)C(=O)O)CSc2ccccc21` (some centres undefined), for which the TEAD-luciferase reporter activity (compound concentration: 200 nM) is inactive: -0.801, the TEAD-luciferase reporter activity (compound concentration: 2 uM) is inactive: -0.469 and the TEAD-luciferase reporter activity (compound concentration: 10 uM) is inactive: 0.406.
The matching figures for `O=C(O)c1cc(=O)[nH]c(=O)[nH]1` [Orotic acid]: inactive: -0.395, inactive: -1.77 and inactive: 0.766.
For `Cc1nc(NCC2CC2)c(C)c(Nc2c(Cl)cc(C)c3nccnc23)n1`, in that order: inactive: -0.886, inactive: 0.584 and inactive: 1.78.
With `CC(SC(=O)c1cccs1)C(=O)NCC(=O)O` (centres undefined) [stepronin], the TEAD-luciferase reporter activity is, setting by setting: (compound concentration: 200 nM) inactive: -0.944; (compound concentration: 2 uM) inactive: -1.48; (compound concentration: 10 uM) inactive: 2.48.
Regarding `COC(=O)[C@H](C/C=C/c1ccc(N(C)c2ncccn2)cc1)NC(=O)c1ccccc1`, the TEAD-luciferase reporter activity (compound concentration: 200 nM) was inactive: 0.0179, the TEAD-luciferase reporter activity (compound concentration: 2 uM) is inactive: -0.495 and the TEAD-luciferase reporter activity (compound concentration: 10 uM) is inactive: 0.0344.
For `CC(=O)NC[C@H]1CN(c2ccc(-c3ccc(CNCc4cnn[nH]4)cc3)c(F)c2)C(=O)O1` [radezolid], in that order: inactive: -0.509, inactive: 0.225 and inactive: -0.118.
For `O=S(=O)(c1cccc2cnccc12)N1CCCNCC1` [fasudil ER], in that order: inactive: 3.46, inactive: 0.723 and inactive: 0.167.
The matching figures for `CCCCCCCCCCCCOC(=O)CCSCCC(=O)OCCCCCCCCCCCC`: inactive: -1.69, inactive: -0.568 and inactive: 0.333.
As to `CCCCC/C=C\C/C=C\CCCCCCCc1ccco1`, the TEAD-luciferase reporter activity (compound concentration: 200 nM) was inactive: 0.512, the TEAD-luciferase reporter activity (compound concentration: 2 uM) was inactive: -0.394 and the TEAD-luciferase reporter activity (compound concentration: 10 uM) was inactive: 1.22.
For `COc1cc2c(cc1Cc1cccc(Cl)c1F)c(=O)c(C(=O)O)cn2[C@H](CO)C(C)C` [Elvitegravir], in that order: inactive: 0.0856, inactive: -0.441 and inactive: 0.871.
In the case of `CN1CCN(c2ccc(C(=O)Nc3n[nH]c4ccc(Cc5cc(F)cc(F)c5)cc34)c(NC3CCOCC3)c2)CC1` [Entrectinib], the TEAD-luciferase reporter activity is inactive: 1.02 (compound concentration: 200 nM), inactive: -1.67 (compound concentration: 2 uM) and inactive: -2.11 (compound concentration: 10 uM).
For `CC(C)(C)c1csc(-c2cc3cc(OCc4ccccc4CC(=O)O)ccc3o2)n1`, in that order: inactive: 0.977, inactive: 2.35 and inactive: -0.245.
In the case of `COc1c(C)cnc(Cn2cc(C#CCCO)c3c(Cl)nc(N)nc32)c1C`, the TEAD-luciferase reporter activity by setting is: (compound concentration: 200 nM) inactive: -0.458; (compound concentration: 10 uM) inactive: -1.44.
`NS(=O)(=O)c1cc2c(cc1Cl)N=CNS2(=O)=O` [Chlorothiazide]: the TEAD-luciferase reporter activity was inactive: -2.23 (compound concentration: 200 nM), inactive: -1.3 (compound concentration: 2 uM) and inactive: 1.76 (compound concentration: 10 uM).
For `COc1ccc(-n2nc(C(N)=O)c3c2C(=O)N(c2ccc(N4CCCCC4=O)cc2)CC3)cc1` [Apixaban], in that order: inactive: 0.342, inactive: -1.39 and inactive: 0.214.
The matching figures for `COc1ccc(/C=C/c2ccc3c(=O)n(CCCN(C)C)ncc3c2)cc1`: inactive: -0.169, inactive: 0.249 and inactive: 1.93.
For `NCCOC[C@H](N)C(=O)O`, in that order: inactive: 1.66, inactive: -1.56 and inactive: -1.06.
As to `CCOC(=O)c1cnc2c(cnn2CC)c1NN=C(C)C` [Etazolate], the TEAD-luciferase reporter activity is inactive: 1.78 (compound concentration: 200 nM), inactive: 0.502 (compound concentration: 2 uM) and inactive: -0.55 (compound concentration: 10 uM).
Turning to `Cc1nc2c(C)cccn2c(=O)c1CCN1CCC(c2noc3cc(F)ccc23)CC1` [Ocaperidone], the TEAD-luciferase reporter activity (compound concentration: 200 nM) was inactive: -0.598, the TEAD-luciferase reporter activity (compound concentration: 2 uM) was inactive: -0.88 and the TEAD-luciferase reporter activity (compound concentration: 10 uM) was inactive: 2.66.
The matching figures for `CCCCOc1ccc(C(=O)OCCN(CC)CC)cc1`: inactive: 1.43, inactive: 0.524 and inactive: 1.75.
For `CC[C@@H]1NC(=O)[C@H](CCCCN)NC(=O)[C@@H](Cc2c[nH]c3ccccc23)NC(=O)[C@H](Cc2ccc(O)cc2)NC(=O)[C@@H](NC(=O)[C@@H](Cc2ccccc2)NC(=O)CN2CCN(CCO)CC2)CSSC[C@@H](C(=O)N[C@H](C(N)=O)[C@@H](C)O)NC1=O`, in that order: inactive: 0.195, inactive: 0.911 and inactive: -0.248.
For `Cc1c(-c2ccccc2)c(-c2ccccc2)nn1-c1ccccc1`, in that order: inactive: -1.84, inactive: -0.486 and inactive: -0.186.
For `CSc1nc(-c2cccc(NC(=O)CN3CCOCC3)c2)c2c(N)c(C(=O)NC(C)(C)C)sc2n1`, the TEAD-luciferase reporter activity is inactive: -0.41 (compound concentration: 200 nM), inactive: -2.24 (compound concentration: 2 uM) and inactive: 1.37 (compound concentration: 10 uM).
For `Clc1cc(OCc2ccccc2)ccc1OCc1ccccc1`, in that order: inactive: -1.33, inactive: 1.98 and active: 5.31.
The matching figures for `O=C(O)Cc1ccc2oc3ccccc3c2c1`: inactive: -1.85, inactive: 0.326 and inactive: 0.455.
The matching figures for `CN(C/C=C(/C#Cc1ccc(-c2ccoc2)cc1)c1ccccc1)CC(=O)O`: inactive: -0.182, inactive: 0.454 and inactive: -0.19.
`CN(C(=O)CN(CCO)CC(=O)N(C)C(C)(C)Cc1ccccc1)C(C)(C)Cc1ccccc1`: the TEAD-luciferase reporter activity (compound concentration: 200 nM) is inactive: -0.487, the TEAD-luciferase reporter activity (compound concentration: 2 uM) is inactive: 0.0433 and the TEAD-luciferase reporter activity (compound concentration: 10 uM) was inactive: 0.278.
The matching figures for `OC[C@H]1O[C@@H](n2c(Br)nc3cc(Cl)c(Cl)cc32)[C@H](O)[C@@H]1O`: inactive: 0.948, inactive: 0.932 and inactive: 1.38.
The matching figures for `O=C(Cc1ccc(OCc2ccccc2)cc1)Nc1ccc2cnn(CCN3CCCC3)c2c1`: inactive: -1.65, inactive: -1.15 and inactive: -0.821.
The matching figures for `CC1=C(/C=C/C(C)=C/C=C/C(C)=C/C=C/C=C(C)/C=C/C=C(C)/C=C/C2=C(C)C(=O)CCC2(C)C)C(C)(C)CCC1=O`: inactive: -0.865, inactive: -0.422 and inactive: -0.392.
With `CC(C)C(=O)NCc1ccc(Cl)c(-c2nc3cc(-c4ccc(C(F)(F)F)cc4)ncc3c(=O)[nH]2)c1`, the TEAD-luciferase reporter activity is, setting by setting: (compound concentration: 200 nM) inactive: 0.346; (compound concentration: 2 uM) inactive: 1.46; (compound concentration: 10 uM) inactive: 2.
The matching figures for `CC[C@@H](C)CCCCC(=O)N[C@@H](CCNCS(=O)(=O)[O-])C(=O)N[C@H](C(=O)N[C@@H](CCNCS(=O)(=O)[O-])C(=O)N[C@H]1CCNC(=O)[C@H]([C@@H](C)O)NC(=O)[C@H](CCNCS(=O)(=O)[O-])NC(=O)[C@H](CCNCS(=O)(=O)[O-])NC(=O)[C@H](CC(C)C)NC(=O)[C@@H](CC(C)C)NC(=O)[C@H](CCNCS(=O)(=O)[O-])NC1=O)[C@@H](C)O` [Colistin A sodium methanesulfonate]: inactive: 1.55, inactive: -0.456 and active: 7.96.
For `CC1(C)[C@H](NC(=O)/C(=N\OCC(=O)O)c2csc(N)n2)C(=O)N1OS(=O)(=O)O`, in that order: inactive: -0.0545, inactive: 0.91 and inactive: 1.54.
The matching figures for `C[C@@H](Oc1ccc2[nH]nc(/C=C/c3cnn(CCO)c3)c2c1)c1c(Cl)cncc1Cl`: inactive: -2.88, inactive: -2.43 and inactive: 0.219.
Take `CC12CCC(=O)C=C1CCC1C2C(O)CC2(C)C1CCC2(O)C(=O)CO` (centres undefined) [hydrocortisone, Diurnal]: the TEAD-luciferase reporter activity (compound concentration: 200 nM) is inactive: 0.0578, the TEAD-luciferase reporter activity (compound concentration: 2 uM) is inactive: 1.07 and the TEAD-luciferase reporter activity (compound concentration: 10 uM) is inactive: -1.82.
With `CCNCCS(=O)(=O)NCC1(c2ccccc2)SC(NC(=O)C(C)(C)C)=NN1C(=O)C(C)(C)C` (centres undefined) [litronesib], the TEAD-luciferase reporter activity (compound concentration: 200 nM) is active: 5.38, the TEAD-luciferase reporter activity (compound concentration: 2 uM) was inactive: -0.298 and the TEAD-luciferase reporter activity (compound concentration: 10 uM) was inactive: 1.42.
As to `O=C(c1cc(O)c(O)c(O)c1)c1ccc(O)c(O)c1O` [Exifone], for the setting “compound concentration: 2 uM”, the TEAD-luciferase reporter activity was inactive: 1.81.
On to `O=C(c1cc(O)c(O)c(O)c1)c1ccc(O)c(O)c1O`, for which the TEAD-luciferase reporter activity was inactive: -0.731 (compound concentration: 200 nM), inactive: -0.43 (compound concentration: 2 uM) and inactive: -1.26 (compound concentration: 10 uM).
For `CNc1nc(Nc2ccc(-n3cnc(C)n3)c(OC)c2)nc2c1CC[C@@H]2c1ccc(F)cc1`, in that order: inactive: -0.888, inactive: 0.36 and inactive: 1.14.
The matching figures for `Cc1csc(NS(=O)(=O)c2ccc(N)cc2)n1`: inactive: 1.54, inactive: -0.0761 and inactive: 0.746.

(Values after the supplement of paper PMC10735217.)
